Source: article PMC3784060 (Cancer Chemotherapy and Pharmacology, 2013)
Like-named read-outs stand apart in the source and are kept apart here.

Tests used:
primary leukemia cells = experiment: cells; conditions: Homo sapiens
Experimental: Primary leukemia cells for in vitro studies were isolated from BM or PB obtained from AML or ALL patients enrolled on a separate University of Maryland, Baltimore, IRB-approved protocol for tissue collection and not treated on this clinical study. The cells were isolated by gradient centrifugation using LSM (Mediatech) according to the manufacturer’s protocol. Cells were used either fresh or after viable freezing (FBS/10 % DMSO). Primary leukemia cells were cultured in RPMI 1640 (Invitrogen, Grand Island, NY, USA) supplemented with 15 % heat-inactivated FBS (HyClone Laboratories Inc., Red Bank, NJ, USA) and 200 mM L-Glutamine (Invitrogen). Leukemia cell lines HL-60 (AML), MOLT-4 (T cell ALL), and K562 (chronic myelogenous leukemia [CML] in erythroid blast transformation) were purchased from American Type Culture Collection (ATCC, Manassas, VA, USA) and cultured in RPMI 1640 (Invitrogen) supplemented with 10 % heat-inactivated FBS (HyClone Laboratories Inc.) and 200 mM L-Glutamine (Invitrogen).

[1] = test system: variety of human cell lines, including leukemia cells; conditions: read-out: median IC50, growth inhibition; cited from earlier work

Compound: CCc1cnn2c(NCc3ccc[n+]([O-])c3)cc(N3CCCC[C@H]3CCO)nc12 [Dinaciclib]
- IC50 (primary leukemia cells; 24 h, read-out: IC50 (WST-1), ALL 03, 24 h): 223 nM
- IC50 (primary leukemia cells; 24 h, read-out: IC50 (WST-1), AML 02, 24 h): 12.6 nM
- IC50 (primary leukemia cells; 24 h, read-out: IC50 (WST-1), AML 04, 24 h): 13.5 nM
- IC50 (primary leukemia cells; 24 h, read-out: IC50 (WST-1), AML 05, 24 h): 10.2 nM
- IC50 (primary leukemia cells; 24 h, read-out: IC50 (WST-1), AML06, 24 h): 11.3 nM
- IC50 (primary leukemia cells; 24 h, read-out: IC50 (WST-1), AML 08, 24 h): 9.5 nM
- IC50 (primary leukemia cells; 24 h, read-out: IC50 (WST-1), primary AML samples, 24 h, range stated as that observed for leukemia cell lines): 8 to 17 nM
- IC50 (primary leukemia cells; AML01, 24 h, read-out: IC50 (WST-1), AML 01, 24 h): 8.84 nM
- IC50 [1]: 11 nM
